Data: the supplement of paper PMC12819154, “High-throughput peptide-centric local stability assay extends protein–ligand identification to membrane proteins, tissues and bacteria” (Nature Structural & Molecular Biology, 2025)
The other results are listed elsewhere or left out. Most values lie at the level of the controls, where differences are scatter.

Sequences of proteins named here, by UniProt entry; tags and fusion partners are left off. A change or cut given only in a name is not applied to a line headed by its entry.
UniProt Q7Z7K2: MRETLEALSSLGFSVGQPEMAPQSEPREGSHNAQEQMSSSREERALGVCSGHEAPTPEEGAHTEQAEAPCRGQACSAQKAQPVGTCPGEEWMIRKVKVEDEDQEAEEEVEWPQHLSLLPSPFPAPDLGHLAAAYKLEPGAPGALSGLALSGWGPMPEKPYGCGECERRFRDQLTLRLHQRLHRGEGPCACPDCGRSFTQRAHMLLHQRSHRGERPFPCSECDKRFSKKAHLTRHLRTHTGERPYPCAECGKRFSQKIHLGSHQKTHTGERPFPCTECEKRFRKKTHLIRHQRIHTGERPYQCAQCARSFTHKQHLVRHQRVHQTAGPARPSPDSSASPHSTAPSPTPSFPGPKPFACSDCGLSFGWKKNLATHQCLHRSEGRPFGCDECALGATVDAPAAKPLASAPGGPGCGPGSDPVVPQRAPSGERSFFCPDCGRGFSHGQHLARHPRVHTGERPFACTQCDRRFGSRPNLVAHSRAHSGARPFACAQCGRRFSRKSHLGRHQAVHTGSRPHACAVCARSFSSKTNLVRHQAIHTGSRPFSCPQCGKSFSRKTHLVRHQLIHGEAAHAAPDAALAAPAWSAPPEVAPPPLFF
UniProt Q7L2Z9: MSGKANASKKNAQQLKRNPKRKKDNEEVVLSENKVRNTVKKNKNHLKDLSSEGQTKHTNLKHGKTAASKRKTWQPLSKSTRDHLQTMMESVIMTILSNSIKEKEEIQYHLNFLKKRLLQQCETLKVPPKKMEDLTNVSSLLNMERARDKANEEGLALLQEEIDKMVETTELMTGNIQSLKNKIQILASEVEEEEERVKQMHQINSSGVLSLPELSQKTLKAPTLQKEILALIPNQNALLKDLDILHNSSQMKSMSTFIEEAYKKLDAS
UniProt Q86TP1: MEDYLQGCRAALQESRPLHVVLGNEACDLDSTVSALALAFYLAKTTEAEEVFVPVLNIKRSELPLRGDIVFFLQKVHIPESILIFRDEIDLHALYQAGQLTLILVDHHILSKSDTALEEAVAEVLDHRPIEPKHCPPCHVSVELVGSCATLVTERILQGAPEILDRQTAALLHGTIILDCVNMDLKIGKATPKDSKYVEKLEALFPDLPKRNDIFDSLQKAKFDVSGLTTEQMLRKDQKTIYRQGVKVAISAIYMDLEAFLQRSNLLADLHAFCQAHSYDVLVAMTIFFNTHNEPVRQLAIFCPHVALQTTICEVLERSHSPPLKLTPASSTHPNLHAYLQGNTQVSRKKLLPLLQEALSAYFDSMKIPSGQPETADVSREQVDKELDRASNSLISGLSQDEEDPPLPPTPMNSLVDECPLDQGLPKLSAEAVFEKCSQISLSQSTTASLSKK
UniProt Q6ZN19: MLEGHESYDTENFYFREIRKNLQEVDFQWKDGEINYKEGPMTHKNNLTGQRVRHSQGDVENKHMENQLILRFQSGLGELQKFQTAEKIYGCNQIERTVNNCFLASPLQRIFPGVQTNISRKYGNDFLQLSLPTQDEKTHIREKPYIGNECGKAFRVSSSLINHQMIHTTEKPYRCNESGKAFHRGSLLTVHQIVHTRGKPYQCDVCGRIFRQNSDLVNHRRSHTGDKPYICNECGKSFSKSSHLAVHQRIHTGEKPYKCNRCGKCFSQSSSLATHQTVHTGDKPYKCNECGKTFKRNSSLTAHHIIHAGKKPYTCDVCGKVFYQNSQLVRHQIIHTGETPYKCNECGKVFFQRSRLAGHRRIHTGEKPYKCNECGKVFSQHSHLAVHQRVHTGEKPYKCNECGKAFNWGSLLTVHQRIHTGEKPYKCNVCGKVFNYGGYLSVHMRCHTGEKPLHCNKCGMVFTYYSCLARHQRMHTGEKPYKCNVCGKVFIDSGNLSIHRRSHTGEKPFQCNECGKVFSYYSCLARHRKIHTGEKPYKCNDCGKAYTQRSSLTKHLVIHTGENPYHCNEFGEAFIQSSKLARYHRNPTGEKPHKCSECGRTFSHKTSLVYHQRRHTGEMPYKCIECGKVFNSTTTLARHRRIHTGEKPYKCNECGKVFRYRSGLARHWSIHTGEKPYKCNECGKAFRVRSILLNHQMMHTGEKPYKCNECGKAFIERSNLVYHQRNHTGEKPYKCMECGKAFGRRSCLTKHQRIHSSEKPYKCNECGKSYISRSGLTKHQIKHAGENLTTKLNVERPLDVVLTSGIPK
UniProt Q7L8J4: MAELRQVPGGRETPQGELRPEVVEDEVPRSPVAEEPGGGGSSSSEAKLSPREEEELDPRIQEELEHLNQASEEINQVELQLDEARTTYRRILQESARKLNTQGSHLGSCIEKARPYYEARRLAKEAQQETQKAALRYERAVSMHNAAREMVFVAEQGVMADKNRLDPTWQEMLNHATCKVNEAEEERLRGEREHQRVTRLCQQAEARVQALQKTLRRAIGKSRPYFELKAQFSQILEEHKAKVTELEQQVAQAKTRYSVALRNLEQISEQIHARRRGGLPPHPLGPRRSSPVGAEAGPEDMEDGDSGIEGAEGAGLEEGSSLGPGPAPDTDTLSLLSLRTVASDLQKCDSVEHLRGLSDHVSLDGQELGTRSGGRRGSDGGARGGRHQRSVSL
UniProt Q86U06: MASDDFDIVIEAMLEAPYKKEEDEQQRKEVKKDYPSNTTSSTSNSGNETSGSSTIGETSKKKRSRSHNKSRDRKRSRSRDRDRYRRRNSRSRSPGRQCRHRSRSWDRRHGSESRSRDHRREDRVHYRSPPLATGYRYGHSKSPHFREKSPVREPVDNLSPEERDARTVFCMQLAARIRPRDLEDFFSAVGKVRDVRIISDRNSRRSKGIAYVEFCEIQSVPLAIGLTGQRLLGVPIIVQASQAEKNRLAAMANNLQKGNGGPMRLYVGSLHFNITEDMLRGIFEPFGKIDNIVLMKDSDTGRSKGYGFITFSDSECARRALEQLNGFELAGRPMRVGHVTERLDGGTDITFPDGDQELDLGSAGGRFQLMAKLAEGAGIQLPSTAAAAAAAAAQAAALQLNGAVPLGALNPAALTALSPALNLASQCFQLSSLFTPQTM
UniProt Q7Z2Z1: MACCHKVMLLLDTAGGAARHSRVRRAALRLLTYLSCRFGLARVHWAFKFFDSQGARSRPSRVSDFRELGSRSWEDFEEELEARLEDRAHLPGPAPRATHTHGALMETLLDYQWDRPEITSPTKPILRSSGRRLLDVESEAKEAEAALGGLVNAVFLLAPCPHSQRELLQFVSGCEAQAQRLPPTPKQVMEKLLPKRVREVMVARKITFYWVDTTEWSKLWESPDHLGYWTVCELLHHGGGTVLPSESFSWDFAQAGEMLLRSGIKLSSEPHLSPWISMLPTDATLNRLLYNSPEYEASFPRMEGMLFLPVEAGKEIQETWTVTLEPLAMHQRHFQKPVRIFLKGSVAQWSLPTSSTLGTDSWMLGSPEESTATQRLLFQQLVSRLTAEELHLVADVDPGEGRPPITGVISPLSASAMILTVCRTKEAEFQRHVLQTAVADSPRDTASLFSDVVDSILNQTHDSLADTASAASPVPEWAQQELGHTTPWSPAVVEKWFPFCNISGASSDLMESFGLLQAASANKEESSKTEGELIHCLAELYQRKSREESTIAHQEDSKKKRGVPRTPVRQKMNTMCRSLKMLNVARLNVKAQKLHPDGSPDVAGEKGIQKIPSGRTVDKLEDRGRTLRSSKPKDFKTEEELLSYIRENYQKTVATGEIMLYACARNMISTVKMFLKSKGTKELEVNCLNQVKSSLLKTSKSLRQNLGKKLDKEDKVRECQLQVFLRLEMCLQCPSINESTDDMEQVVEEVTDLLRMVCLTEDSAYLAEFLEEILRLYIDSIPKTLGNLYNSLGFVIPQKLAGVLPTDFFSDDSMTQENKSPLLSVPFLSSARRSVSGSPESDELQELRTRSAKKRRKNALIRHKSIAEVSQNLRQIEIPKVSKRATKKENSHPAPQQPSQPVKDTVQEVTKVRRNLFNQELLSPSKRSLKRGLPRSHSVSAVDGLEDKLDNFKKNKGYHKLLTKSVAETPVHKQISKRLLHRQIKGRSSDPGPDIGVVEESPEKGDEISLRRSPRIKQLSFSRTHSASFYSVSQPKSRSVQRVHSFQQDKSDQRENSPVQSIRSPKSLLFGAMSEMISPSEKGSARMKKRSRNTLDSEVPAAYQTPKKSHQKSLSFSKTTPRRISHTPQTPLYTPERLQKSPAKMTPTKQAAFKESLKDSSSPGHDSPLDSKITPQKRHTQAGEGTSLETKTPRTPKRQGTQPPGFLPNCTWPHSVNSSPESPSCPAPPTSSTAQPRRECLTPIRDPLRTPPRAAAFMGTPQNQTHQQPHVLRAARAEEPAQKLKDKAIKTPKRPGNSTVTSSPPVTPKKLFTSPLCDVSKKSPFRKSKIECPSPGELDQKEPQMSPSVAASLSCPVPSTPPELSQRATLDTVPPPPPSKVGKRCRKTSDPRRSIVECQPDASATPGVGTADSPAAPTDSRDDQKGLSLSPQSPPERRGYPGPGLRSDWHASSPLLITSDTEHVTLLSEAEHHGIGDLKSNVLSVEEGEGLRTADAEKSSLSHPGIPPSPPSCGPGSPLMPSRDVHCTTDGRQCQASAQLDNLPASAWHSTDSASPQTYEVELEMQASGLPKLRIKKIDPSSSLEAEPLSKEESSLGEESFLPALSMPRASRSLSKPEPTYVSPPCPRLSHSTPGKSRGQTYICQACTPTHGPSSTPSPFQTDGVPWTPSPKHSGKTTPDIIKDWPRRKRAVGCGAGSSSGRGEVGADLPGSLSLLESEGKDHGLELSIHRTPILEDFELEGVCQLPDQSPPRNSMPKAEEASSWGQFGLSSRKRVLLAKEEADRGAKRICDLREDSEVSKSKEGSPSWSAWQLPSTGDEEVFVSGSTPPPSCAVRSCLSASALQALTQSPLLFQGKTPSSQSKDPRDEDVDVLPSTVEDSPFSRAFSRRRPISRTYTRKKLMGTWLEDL
UniProt Q7Z3D6: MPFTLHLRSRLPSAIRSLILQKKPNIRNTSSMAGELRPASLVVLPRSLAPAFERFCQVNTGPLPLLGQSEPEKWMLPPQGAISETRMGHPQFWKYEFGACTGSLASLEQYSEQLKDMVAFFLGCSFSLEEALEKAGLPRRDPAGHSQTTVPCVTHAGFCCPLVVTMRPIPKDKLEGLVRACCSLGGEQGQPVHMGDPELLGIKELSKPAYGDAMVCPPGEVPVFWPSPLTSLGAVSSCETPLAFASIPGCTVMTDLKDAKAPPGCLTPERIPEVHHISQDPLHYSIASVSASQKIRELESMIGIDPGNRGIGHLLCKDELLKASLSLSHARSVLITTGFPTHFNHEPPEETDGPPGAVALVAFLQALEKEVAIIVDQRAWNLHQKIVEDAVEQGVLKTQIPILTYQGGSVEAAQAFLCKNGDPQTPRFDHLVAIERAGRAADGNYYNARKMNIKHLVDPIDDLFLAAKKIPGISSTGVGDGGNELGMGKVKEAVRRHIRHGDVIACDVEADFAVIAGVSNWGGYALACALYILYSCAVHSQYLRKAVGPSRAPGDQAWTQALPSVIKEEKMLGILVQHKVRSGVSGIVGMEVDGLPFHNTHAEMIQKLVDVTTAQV
UniProt Q7RTV0, whole entry, looked up: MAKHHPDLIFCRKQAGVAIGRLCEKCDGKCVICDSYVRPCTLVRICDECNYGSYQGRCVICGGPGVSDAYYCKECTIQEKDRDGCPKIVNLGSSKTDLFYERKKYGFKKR
UniProt Q75QN2, whole entry: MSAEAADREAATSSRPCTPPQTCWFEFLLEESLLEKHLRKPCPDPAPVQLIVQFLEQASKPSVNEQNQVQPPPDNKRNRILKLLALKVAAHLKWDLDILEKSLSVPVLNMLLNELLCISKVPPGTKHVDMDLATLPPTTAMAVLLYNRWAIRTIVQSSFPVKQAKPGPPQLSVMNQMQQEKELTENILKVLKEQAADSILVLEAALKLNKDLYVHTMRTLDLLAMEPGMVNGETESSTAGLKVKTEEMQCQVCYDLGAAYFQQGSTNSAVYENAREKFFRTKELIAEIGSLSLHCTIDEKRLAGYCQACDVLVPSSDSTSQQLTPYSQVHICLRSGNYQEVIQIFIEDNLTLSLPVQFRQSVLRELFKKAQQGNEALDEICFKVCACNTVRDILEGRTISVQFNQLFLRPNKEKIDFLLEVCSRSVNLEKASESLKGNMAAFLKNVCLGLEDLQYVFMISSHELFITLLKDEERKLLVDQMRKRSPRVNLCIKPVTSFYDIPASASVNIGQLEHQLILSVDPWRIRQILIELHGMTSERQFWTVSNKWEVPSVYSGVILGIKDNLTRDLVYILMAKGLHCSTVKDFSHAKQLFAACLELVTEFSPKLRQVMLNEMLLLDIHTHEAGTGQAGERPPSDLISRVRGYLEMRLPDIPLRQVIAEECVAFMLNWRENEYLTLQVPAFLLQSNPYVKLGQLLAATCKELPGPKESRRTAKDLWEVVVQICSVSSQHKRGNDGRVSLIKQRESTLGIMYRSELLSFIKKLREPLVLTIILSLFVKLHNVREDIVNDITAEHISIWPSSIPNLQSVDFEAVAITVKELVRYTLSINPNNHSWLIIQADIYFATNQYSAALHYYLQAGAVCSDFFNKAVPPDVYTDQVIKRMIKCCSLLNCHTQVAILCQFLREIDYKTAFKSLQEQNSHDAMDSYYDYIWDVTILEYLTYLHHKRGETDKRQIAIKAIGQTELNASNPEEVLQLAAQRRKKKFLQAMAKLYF

Each target was assayed with CN[C@@H]1C[C@H]2O[C@@](C)([C@@H]1OC)n1c3ccccc3c3c4c(c5c6ccccc6n2c5c31)C(=O)NC4 [staurosporine] (assay: log2 fold change of tryptic peptide abundance, ligand vs vehicle (limited proteolysis) (log2 ratio); higher = more trypsin-susceptible (destabilized)). Settings: ligand concentration: 20 uM; sample: K562 cleared lysate; digestion: 4 min, 22 C (HT-PELSA RT4min, Orbitrap Astral).

Row | Target | log2 fold change
1 | CAND1 (peptide sequence: TLEDPDLNVRR, peptide start residue: 1014) (UniProt Q86VP6) | 0.907
2 | PAXIP1 (peptide sequence: LMAYLAGAK, peptide start residue: 726) (UniProt Q6ZW49) | 0.28
3 | UniProt Q6ZSB9 (peptide sequence: TLDESHPHASPSVNR, peptide start residue: 169) | -0.253
4 | MICAL3 (peptide sequence: MQQMELASGAPRPR, peptide start residue: 1620) (UniProt Q7RTP6) | 0.215
5 | UniProt Q7Z7K2 (peptide sequence: GFSHGQHLAR, peptide start residue: 439) | 0.591
6 | CENPQ (peptide sequence: DLDILHNSSQMK, peptide start residue: 241) (UniProt Q7L2Z9) | 0.329
7 | UniProt Q6ZN08 (peptide sequence: SSNLTTHK, peptide start residue: 278) | 0.515
8 | ASXL2 (peptide sequence: DSSIDTHQYHEGLSK, peptide start residue: 1046) (UniProt Q76L83) | 0.294
9 | UniProt Q7Z7A3 (peptide sequence: RLEAARPSAVLDLVHSAER, peptide start residue: 254) | 0.217
10 | TSEN54 (peptide sequence: WNFEQISFPNMASDSR, peptide start residue: 296) (UniProt Q7Z6J9) | -0.198
11 | PNMA8A (peptide sequence: AETPNNWNATEDQHEPTKPLVR, peptide start residue: 212) (UniProt Q86V59) | 0.37
12 | UniProt Q86TP1 (peptide sequence: RSELPLRGDIVFFLQK, peptide start residue: 60) | 0.517
13 | UniProt Q6ZN19 (peptide sequence: GSLLTVHQIVHTR, peptide start residue: 185) | -0.201
14 | SH3BP5L (peptide sequence: GLSDHVSLDGQELGTR, peptide start residue: 356) (UniProt Q7L8J4) | -0.734
15 | RBM23 (peptide sequence: SPPLATGYR, peptide start residue: 128) (UniProt Q86U06) | 0.186
16 | IRF2BP2 (peptide sequence: DANQVHSTTRR, peptide start residue: 443) (UniProt Q7Z5L9) | 0.44
17 | CYB5R4 (peptide sequence: SQVTDTLAK, peptide start residue: 154) (UniProt Q7L1T6) | -0.149
18 | USP34 (peptide sequence: AYNPRPFCK, peptide start residue: 1954) (UniProt Q70CQ2) | -0.923
19 | TICRR (peptide sequence: SHSVSAVDGLEDKLDNFKK, peptide start residue: 936) (UniProt Q7Z2Z1) | -0.582

Quoted from the listing:
Entry of TICRR (peptide sequence: SHSVSAVDGLEDKLDNFKK, peptide start residue: 936) (UniProt Q7Z2Z1) under log2 fold change: -0.582
Entry of USP34 (peptide sequence: AYNPRPFCK, peptide start residue: 1954) (UniProt Q70CQ2) under log2 fold change: -0.923

Next entries.

Row | Target | log2 fold change
20 | UniProt Q7Z422 (peptide sequence: RPTSNGVVSSPNSTSR, peptide start residue: 65) | -0.948
21 | UniProt Q7Z3D6 (peptide sequence: HLVDPIDDLFLAAK, peptide start residue: 455) | -0.149
22 | UniProt Q7RTV0 (peptide sequence: TDLFYER, peptide start residue: 96) | -0.0749
23 | CCDC91 (peptide sequence: NKEALVSAAKLEK, peptide start residue: 299) (UniProt Q7Z6B0) | 0.806
24 | UniProt Q86V20 (peptide sequence: LISNGGDSAVEMDRR, peptide start residue: 404) | -0.179
25 | METTL3 (peptide sequence: VSQEILELLNTTTAK, peptide start residue: 242) (UniProt Q86U44) | -0.351
26 | INTS8 (peptide sequence: LLVDQMR, peptide start residue: 476) (UniProt Q75QN2) | 0.0964
27 | UniProt Q712K3 (peptide sequence: SLQEEPVEGFR, peptide start residue: 19) | 0.346
28 | RTTN (peptide sequence: SSPLLPLLIFHNVCFSPANKPK, peptide start residue: 2115) (UniProt Q86VV8) | 0.391
29 | KCTD20 (peptide sequence: GSCFQSGNKR, peptide start residue: 80) (UniProt Q7Z5Y7) | -0.419
30 | PACS2 (peptide sequence: IAVAGAQHYLSAILR, peptide start residue: 551) (UniProt Q86VP3) | -0.234
31 | UniProt Q86VE0 (peptide sequence: RTGQEVQKR, peptide start residue: 71) | 0.379
32 | TAF8 (peptide sequence: MVITAPPVTNQPVTPK, peptide start residue: 117) (UniProt Q7Z7C8) | -0.183
33 | MTDH (peptide sequence: EVDEGAWETK, peptide start residue: 186) (UniProt Q86UE4) | 0.148
34 | FAM83A (peptide sequence: FQPHQGPWGAPSPQAHLSPR, peptide start residue: 369) (UniProt Q86UY5) | 0.671
35 | PBRM1 (peptide sequence: IILEPMDLK, peptide start residue: 561) (UniProt Q86U86) | 0.156
36 | UniProt Q6ZVD8 (peptide sequence: CSLHPTPTSGLFQR, peptide start residue: 1118) | -0.0628
37 | VPS13B (peptide sequence: HQPSDLHADQAPNSHVK, peptide start residue: 3838) (UniProt Q7Z7G8) | 0.592
38 | SUPT6H (peptide sequence: DHYQDPVPGITPSSSSR, peptide start residue: 1513) (UniProt Q7KZ85) | 0.357
